These are literature values, as cited in patent publication US5128376A, “Method for percutaneously administering physiologically active agents using an adjuvant a solvent and a diol moderator” (priority 1990, dated 1992).

The structures appear in SMILES notation.

For this data set the following is noted: therapeutic oral doses in man; Kaplan et al., J. Pharm. Sci. 1973; cited from earlier work.

For `CN1C(=O)CN=C(c2ccccc2)c2cc(Cl)ccc21` [diazepam, 7-Chloro-1,3-dihydro-1-methyl-5-phenyl-2H-1,4-benzodiazepine-2-one], the blood levels entry is listed as “approximately 100 ng/ml plasma”.
